In patent US20160264653A1 one finds binding data, which are given here for four molecules.

Results are given in words; binding and its absence hold for the method and conditions named. Some binding calls cover weakened binding; strength is not graded here.

Sequences and labels used below:
B1: hSC4.22 (antibody, human IgG1, V domains shown)
VH: QVQLVQSGAEVKKPGASVKVSCKASGYTFTGYYIHWVRQAPGQGLEWMGWIYPGNFNTKYNERFKGRVTMTTDTSTSTAYMELRSLRSDDTAVYYCAREDGSPYYAMDYWGQGTSVTVSS
VL: DIVMTQTPLSLSVTPGQPASISCRSSQSLVHSNGNTFLYWYLQKPGQSPQLLIYRVSNRFSGVPDRFSGSGSGTDFTLKISRVEAEDVGVYYCFQATHVPWTFGGGTKVEIK
B2: hSC4.15 (antibody, V domains shown)
VH: EVQLVESGGGLVKPGGSLRLSCAASGFTFSTYGMSWVRQAPGKGLEWVATISSGGTYTYYPDSVKGRFKISRDNAKNSLYLQMNSLRAEDTAVYYCTRHDPNDGYYFLFAYWGQGTLVTVSS
VL: EIVLTQSPGTLSLSPGERATLSCKASQSVGNNVAWYQQKPGQAPRLLIYYASNRYTGIPDRFSGSGSGTDFTLTISRLEPEDFAVYYCQQHYSSPLTFGAGTKLEIK
B3: hSC4.47 (antibody, human IgG1, V domains shown)
VH: QVQLVQSGAEVKKPGASVKVSCKASGYTFTYFYMNWVRQAPGQGLEWVGQINPNNGGTAYAQKFQGRVTMTRDTSTSTVYMELSSLRSEDTAVYYCARWVGTHYFDYWGQGTTLTVSS
VL: EIVLTQSPATLSLSPGERATLSCRASQSVSSSSYTYIHWYQQKPGQAPRLLINFASNLESGIPARFSGSGSGTDFTLTISSLEPEDFAVYYCQHSWEIPPTFGGGTKLEIK
B4: hSC4.5 (antibody, human IgG1, V domains shown)
VH: EVQLVESGGGLVQPGGSLRLSCAASGFTVTTYGVDWVRQAPGKGLEWLGVIWGGGSTNYNSALKSRFTISRDNSKNTLYLQMNSLRAEDTAVYYCASDWAYWGQGTLVTVSS
VL: DIQMTQSPSSLSASVGDRVTITCRASQNVGTNVAWFQQKPGKAPKSLIHSASYRYSGVPSRFSGSGSGTDFTLTISSLQPEDFATYYCQQYKRYPYTFGGGTKLEIK

The assay deals with T1, EFNA4 antigen (human) (UniProt P52798).
T1 sequence: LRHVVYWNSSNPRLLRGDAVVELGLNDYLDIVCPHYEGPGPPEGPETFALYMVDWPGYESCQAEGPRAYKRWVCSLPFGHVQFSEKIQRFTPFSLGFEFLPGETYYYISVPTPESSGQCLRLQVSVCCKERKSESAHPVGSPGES
As to the kind of experiment: SPR (Biacore). For orientation: In SPR one partner is held on a chip, and binding of the other changes the refractive index at the surface.
Take B1: the binding result was “binds”. B2: the binding result is “binds”. As to B3, the binding result was “binds”.

As for B4, the binding result was “binds”.
